These are yes or no findings as the source states them, for the method shown. Binding seen in cells or lysates may run through a third protein. Some results given as binding are weak or reduced against the parent protein; the word gives no strength. Tags and fused reporters may be left off the sequences shown.

The target in test [1] is T1, FLAG-tagged fibrillarin (FBL), human (human) (UniProt P22087).
T1 sequence: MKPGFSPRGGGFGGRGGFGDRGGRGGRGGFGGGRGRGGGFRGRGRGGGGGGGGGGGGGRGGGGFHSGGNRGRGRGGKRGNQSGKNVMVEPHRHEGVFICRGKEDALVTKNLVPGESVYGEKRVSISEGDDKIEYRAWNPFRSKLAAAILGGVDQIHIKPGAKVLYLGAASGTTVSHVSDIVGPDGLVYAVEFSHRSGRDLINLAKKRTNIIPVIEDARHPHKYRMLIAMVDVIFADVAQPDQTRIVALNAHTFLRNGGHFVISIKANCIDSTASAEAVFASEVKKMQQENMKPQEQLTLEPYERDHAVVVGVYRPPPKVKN
Briefly: co-IP.

The target in test [2] is myc-tagged Hendra virus matrix protein (HeV-M) (Hendra virus) (UniProt O89341). Briefly: co-IP.

“myc-tagged Hendra virus matrix protein (HeV-M) (from UniProt O89341 1-352)”: the binding result in test [1] was “binds”.

B1: FLAG-tagged fibrillarin (FBL), human (enzyme, UniProt P22087 1-321)
chain: MKPGFSPRGGGFGGRGGFGDRGGRGGRGGFGGGRGRGGGFRGRGRGGGGGGGGGGGGGRGGGGFHSGGNRGRGRGGKRGNQSGKNVMVEPHRHEGVFICRGKEDALVTKNLVPGESVYGEKRVSISEGDDKIEYRAWNPFRSKLAAAILGGVDQIHIKPGAKVLYLGAASGTTVSHVSDIVGPDGLVYAVEFSHRSGRDLINLAKKRTNIIPVIEDARHPHKYRMLIAMVDVIFADVAQPDQTRIVALNAHTFLRNGGHFVISIKANCIDSTASAEAVFASEVKKMQQENMKPQEQLTLEPYERDHAVVVGVYRPPPKVKN
For the molecule B1, the binding result in test [2] is given as “binds”.

For the origin of these results see publication PMC4806981.
